Laboratory results from article PMC12040169 (PLOS Biology, 2025).
The list shows a part of the results.

tested on: T1, CTL2-GFP (C. trachomatis L2/434/Bu, GFP-expressing); design: species or system HeLa; Intracellular C. trachomatis growth in HeLa cells, bulk GFP fluorescence relative to DMSO; conditions: bulk GFP, single well; 28.5 h, 10 µM; inhibitor
T1 construct: L2/434/Bu, GFP-expressing

| Compound | % of control remaining |
| --- | --- |
| CC1(CNS(=O)(=O)Cc2cc(F)cc(F)c2)COC1 [CBK281413] | 114.486% |
| CC(C)NS(=O)(=O)c1ccc(OCC(=O)Nc2ccc3c(c2)OCO3)c(Cl)c1 [CBK267919] | 140.188% |
| CN1C(=O)COc2ccccc2C/C=C/C[C@@H]2[C@H]1CCCN2C(=O)CCCNc1ncccn1 [CBK292168] | 99.5478% |
| CC(=O)c1cccc(-c2cnc(N)c(-c3ccc(O)cc3)n2)c1 [CBK122508] | 127.903% |
| CC(C)NC(=O)[C@H]1CN2CCC1C[C@@H]2Cn1cc(C2(O)CCCC2)nn1 (stereo partly drawn) [CBK289090] | 127.722% |
| Cc1ccc2c(c1)C(NC(=O)C1CCN(S(C)(=O)=O)CC1)CC(C)(C)O2 (stereo not drawn) [CBK307604] | 89.287% |
| Cc1ccc(-c2noc(CN3CCN(c4ccccc4)CC3)n2)cc1 [CBK265924] | 194.068% |
| CN(C)C(=O)CO[C@@H]1CO[C@H]2[C@@H]1OC[C@@H]2Nc1nccc(-c2cccs2)n1 [CBK289515] | 74.7248% |
| Cc1cc(C)nc(N2CCC(c3cc(CCOc4cccc(C(F)(F)F)c4)[nH]n3)C2)n1 (stereo not drawn) [CBK285568] | 143.829% |
| NS(=O)(=O)c1ccc(NC(=S)NC(=O)c2cccc3c(Cl)cccc23)cc1 [CBK268814] | 121.836% |
| Cc1cccc(C2(O)CCN(CC(O)c3ccc4c(c3)CCC4)CC2)c1 (stereo not drawn) [CBK286330] | 131.645% |
| Cn1ccnc1C1(O)C2CCCC1CN(Cc1ccc(F)c(F)c1)C2 (stereo not drawn) [CBK285189] | 81.6914% |
| COc1ccccc1NC(=O)CSCc1nc2ccccc2[nH]1 [CBK268385] | 154.171% |
| CCn1c(=O)sc2cc(Br)ccc21 [CBK026526] | 131.172% |
| O=C(O)CCC(=O)N1CCN(C(=O)c2ccco2)CC1 [CBK286533] | 146.491% |
| CCn1cc(Cl)c(C(=O)NC2CCN(c3cnccn3)CC2)n1 [CBK306922] | 113.966% |
| Cc1ccc(Cl)cc1NC(=O)c1cc([N+](=O)[O-])ccc1NCCN1C(=O)c2ccccc2C1=O [CBK268501] | 120.37% |
| CC(Oc1cccc(C#N)c1)C(=O)N1CCCC1C(=O)NCC(F)(F)F (stereo not drawn) [CBK305435] | 131.894% |
| CCCc1ccc(S(=O)(=O)Nc2ccc(C(=O)N3CCN(C)CC3)cc2)cc1 [CBK034547] | 100% |
| O=C(Nc1cccc(Cl)c1Cl)N1CCC(n2c(=O)[nH]c3ccccc32)CC1 [CBK149856] | 112.337% |
| O=[N+]([O-])c1ccc(CSc2nnc(-c3cccs3)n2Cc2ccco2)cc1 [CBK267588] | 114.79% |

Reprinted from above (two entries):

| Compound | % of control remaining |
| --- | --- |
| COc1ccccc1NC(=O)CSCc1nc2ccccc2[nH]1 [CBK268385] | 154.171% |
| CCn1c(=O)sc2cc(Br)ccc21 [CBK026526] | 131.172% |
